{"sequences": {"note": "Amino acid sequences for entries named in this document (tags omitted). Residues count along the entry.", "UniProt P15941, residues 1110-1255": "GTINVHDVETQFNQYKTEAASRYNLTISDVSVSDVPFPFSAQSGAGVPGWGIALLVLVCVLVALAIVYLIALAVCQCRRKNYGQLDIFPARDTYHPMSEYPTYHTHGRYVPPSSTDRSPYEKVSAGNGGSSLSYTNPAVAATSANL", "UniProt P15531, residues 2-152": "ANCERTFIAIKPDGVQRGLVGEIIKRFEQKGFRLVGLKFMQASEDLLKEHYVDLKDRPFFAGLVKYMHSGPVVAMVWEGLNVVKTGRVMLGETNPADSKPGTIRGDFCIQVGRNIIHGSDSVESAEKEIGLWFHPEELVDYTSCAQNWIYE"}, "source": "patent US20100316688A1", "target": "MUC1* (clipped form of MUC1, N-terminus truncated so that the extracellular domain is essentially the PSMGFR) on human stem or progenitor cells (human) (UniProt P15941)", "test": "immunocytochemistry co-localisation on H9 hESC colonies", "note": "No constants are given. Whether binding was seen depends on the method and setting. Some results given as binding are weak or reduced against the parent protein; the word gives no strength."}
{"substance": "NM23 (endogenous, on or in human embryonic stem cells) (from UniProt P15531 2-152) (ligand)", "values": [{"measurement": "binding", "result": "binds"}]}
